Literature values in patent USRE38115E1, “Dextromethorphan and an oxidase inhibitor for treating intractable conditions” (Center for Neurologic Study, priority 1996, dated 2003).
pKi: −log10 of the molar value. Some entries share one result that the patent states for a list of compounds.

Protein sequences, listed by entry. Tags and fused reporters are not part of them.
UniProt P10635, whole entry: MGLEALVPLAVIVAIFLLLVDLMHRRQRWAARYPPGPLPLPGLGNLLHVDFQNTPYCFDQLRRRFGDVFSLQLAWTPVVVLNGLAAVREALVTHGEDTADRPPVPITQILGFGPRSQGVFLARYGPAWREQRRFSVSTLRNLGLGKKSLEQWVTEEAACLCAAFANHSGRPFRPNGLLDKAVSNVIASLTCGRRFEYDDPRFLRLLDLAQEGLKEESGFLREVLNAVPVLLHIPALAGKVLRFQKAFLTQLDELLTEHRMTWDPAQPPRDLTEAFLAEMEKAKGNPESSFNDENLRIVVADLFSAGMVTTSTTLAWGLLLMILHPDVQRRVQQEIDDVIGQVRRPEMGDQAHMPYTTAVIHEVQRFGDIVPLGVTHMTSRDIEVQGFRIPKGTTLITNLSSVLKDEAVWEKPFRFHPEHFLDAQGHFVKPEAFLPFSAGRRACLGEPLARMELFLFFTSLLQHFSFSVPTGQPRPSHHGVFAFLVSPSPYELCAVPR

Biological target: debrisoquin hydroxylase (Homo sapiens, UniProt P10635)
Conditions: read-out: Ki value (Michaelis-Menton inhibition values); as reported in Inaba et al.; cited from earlier work

In the case of `CC[C@H]1[C@@H]2C[C@H]3[C@@H]4N(C)c5ccccc5[C@]45C[C@@H]([C@H]2[C@H]5O)N3[C@@H]1O` [ajmaline], the pKi is listed as ≥ 4.30.

In the case of `COc1ccc(Cc2nccc3cc(OC)c(OC)cc23)cc1OC` [papaverine], the pKi is given as ≥ 4.30.
